System: rats with ischemia-induced ARF
Experiment: Ischemia-induced acute renal failure (ARF) by bilateral renal artery occlusion: clearance studies, immunoblotting, immunocytochemistry
Format: in vivo, rat
Conditions: ARF + MSH group
[1] = Baseline period Day-1 (before operation)
[2] = Baseline period Day-2 (before operation)

**Q.** Which Urine osmolality [1] does the source give for “α-melanocyte stimulating hormone [α-MSH]” here?
**A.** Its Urine osmolality is 1439 mosm/KgH2O.

**Q.** And the Urine output [1]?
**A.** Its Urine output is 2.16 mL/h/kg.

**Q.** And the “Urine output (Table 5)” value [1]?
**A.** The value was 36 μl/mm/Kg.

**Q.** What about the Urine osmolality [2] of the same substance?
**A.** The Urine osmolality was 1602 mosm/KgH2O.

**Q.** What about the Urine output [2] of the same substance?
**A.** The Urine output was 2.1 mL/h/kg.

**Q.** What about the “Urine output (Table 5)” value [2] of the same substance?
**A.** The value was 35 μl/mm/Kg.

From patent US20020037832A1, “Use of alpha-MSH and EPO for preventing or treating ischemic conditions” (priority 2000, published 2002)
